{"source": "patent US11925653B2", "about": "“Combination therapy effective against microorganisms, including drug resistant microorganisms” (Fleurir ABX LLC, priority 2021, dated 2024)", "experiment": "representative pharmacokinetic parameters", "conditions": "in vivo", "excerpt": "In many embodiments, the novel composition will be provided at a therapeutically effective amount, which refers to that amount of the novel composition on its whole which, when administered to a subject in need thereof, is sufficient to effect treatment of a symptom, a condition, or a disease of interest in the subject or as presented by the subject. The amount of an antibiotic composition of the invention which constitutes a “therapeutically effective amount” will vary depending on the antibiotic composition, the disease or condition, and its severity, and the age of the mammal to be treated, but can be determined routinely by one of ordinary skill in the art having regard to their own knowledge, and to this disclosure. The therapeutically effective amount may be modified by pharmacokinetic, and pharmacodynamic analysis as is understood in the field. In some embodiments, the novel composition may be provided prophylactically or preventatively or protectively, which may, in some instances, be at or below a therapeutically effective amount.", "data": [{"smiles": "Cc1cc(NS(=O)(=O)c2ccc(N)cc2)no1", "note": "[sulfamethoxazole, N1-(5-methyl-3-isoxazolyl)sulfanilamide]", "values": [{"measurement": "Tmax", "result": 4, "unit": "h"}]}]}
